Experimental data published in the supplement of paper PMC12889115.
This is one part of the list. Values are raw readings; no control value is given beside them.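 Primary screen: polymyxin B was added at a level permeabilizing Salmonella outer membranes while sparing inner membranes. DMSO wells, both with and without polymyxin B, established maximum growth. Plate-to-plate variation meant each plate was ranked on its own, and the lowest-OD600 compounds were selected as hits.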

Test system: Salmonella enterica serovar Typhimurium SL1344
Test: bacterial growth OD600 after 18 h with compound and polymyxin B; higher = more bacterial growth (less inhibition)
Conditions: 50 µM, Mueller-Hinton broth

SMILES | bacterial growth OD600 (polymyxin B 0.75 µg/mL) | bacterial growth OD600 (polymyxin B 1 µg/mL)
CCOc1ccc2nc(N3CCCN(Cc4cccc(O)c4)CC3)nc(C)c2c1 | 0.797 | –
Cc1cc(C)c(C(=O)N2CCC(C3CCN(Cc4cccnc4)CC3)C2)[nH]1 (stereo unspecified) | 0.848 | –
CC(C)c1cc(C(=O)N2CCCC(C(=O)c3ccc4ccccc4c3)C2)on1 (stereo unspecified) | – | 0.979
COc1ccc(F)c(CN2CCCC(O)(CNC3CCCCC3)C2=O)c1 (stereo unspecified) | 0.962 | –
Cc1oc(-c2ccccc2NS(C)(=O)=O)nc1CN(C)Cc1c(F)cccc1F | 0.078 | –
C=CCC(O)(CC=C)C(C)NC(=O)CCC1(CC)CCC(=O)N1 (stereo unspecified) | 0.903 | –
COC(=O)c1ccc(CN2CCC(CO)(CCOc3ccccc3)CC2)cc1 | – | 1.13
COCCn1cc(C(=O)NCC2(c3ccccc3)CCCC2)c(=O)c(C(=O)N2CCCCCC2)c1 | 0.773 | –
COc1ccc(CCN2C(=O)O[C@@H]3CN(S(=O)(=O)N4CCCC4)C[C@@H]32)cc1 | – | 0.928
COC(=O)C1CCCCN1Cc1nc(N2CCCN(C(C)=O)CC2)c2cccc(C)c2n1 (stereo unspecified) | 0.892 | –
CCOC(=O)CNC(=O)N1CCC(CCC(=O)Nc2cccc(OC)c2)CC1 | – | 0.99
CCc1nccn1CCC(=O)NCc1nc(-c2ccc(NC(=O)c3ccc(COC)o3)cc2)oc1C | 0.883 | –
COC(C(=O)Nc1ccnn1C1CCN(C2CCCC2)CC1)c1ccccc1 (stereo unspecified) | – | 1.01
O=C(Nc1ccc(-c2nc3ccccc3o2)cc1)C1CCN(CCO)CC1 | – | 1.06
Cc1ccccc1CCC1CCCN(C(=O)CCN2CCCO2)C1 (stereo unspecified) | 0.845 | –
CCOC(=O)C1(Cc2ccc(F)cc2F)CCCN(Cc2cnc(SC)nc2)C1 (stereo unspecified) | – | 0.777

SMILES | bacterial growth OD600 (polymyxin B 0.75 µg/mL) | bacterial growth OD600 (polymyxin B 1 µg/mL)
Cc1cccc(CN2CCCC3(CCN(c4cc(C)nc(N)n4)C3)C2=O)c1 (stereo unspecified) | – | 0.908
Cc1cnc(C(=O)N(CC2CCN(Cc3ccccc3C)CC2)CC2CCCO2)cn1 (stereo unspecified) | – | 0.541
O=C(NCc1cccc2[nH]ccc12)c1cc(COc2ccccc2)[nH]n1 | – | 1
COC(=O)CC(NC1CCN(c2ccc(NC(=O)c3cnccn3)cc2)CC1)C(=O)OC (stereo unspecified) | 0.87 | –
O=C(c1ccccn1)N1CCC2(CCCN(Cc3ccc(F)c(F)c3)C2=O)C1 (stereo unspecified) | – | 0.959
COc1cccc(CC2=NOC(C(=O)NC3CCc4ccccc43)C2)c1 (stereo unspecified) | 0.719 | –
COc1cccc(CN2CC(C(=O)N3CCC(Oc4cccnc4)CC3)CCC2=O)c1 (stereo unspecified) | – | 0.814
CCCn1cc(CN2C[C@H]3OC(=O)N(CCc4ccc(F)cc4)[C@H]3C2)c(C)n1 | 0.814 | –
c1cnc(N2CCC(C3CCN(C4CCOCC4)C3)CC2)nc1 (stereo unspecified) | 0.778 | –
COc1ccccc1CNC(=O)CCC1(Cc2ccc(OC)c3ccccc23)CCC(=O)N1 (stereo unspecified) | 0.747 | –
COc1ccc(CN2CCN(C3CCCC3)C(CCO)C2)cc1C (stereo unspecified) | – | 0.794
O=C(c1coc(COc2cccc3cccnc23)n1)N1CCCC1 | – | 0.924
COc1ccc(C(=O)N2CCc3c(cnc(C)c3CNC(=O)c3ccccc3SC)C2)cc1F | 0.821 | –
Cc1ccccc1-c1cnc(-c2cccnc2)nc1C1CCN(C(=O)c2sccc2C)CC1 | 0.725 | –
CN(CCO)c1ccc(-c2nc(-c3cccc(C(F)(F)F)c3)no2)cn1 | 0.116 | –

Sorted by length of the SMILES (rising): three of the compounds above
SMILES | bacterial growth OD600 (polymyxin B 0.75 µg/mL) | bacterial growth OD600 (polymyxin B 1 µg/mL)
CN(CCO)c1ccc(-c2nc(-c3cccc(C(F)(F)F)c3)no2)cn1 | 0.116 | –
O=C(c1ccccn1)N1CCC2(CCCN(Cc3ccc(F)c(F)c3)C2=O)C1 (stereo unspecified) | – | 0.959
CCCn1cc(CN2C[C@H]3OC(=O)N(CCc4ccc(F)cc4)[C@H]3C2)c(C)n1 | 0.814 | –
